Measurements taken from the supplement of paper PMC6078165.
± gives the standard deviation of the averaged measurements. The reference is the same well before dosing, and untreated signal decays as well.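 The cancer cells are triple-negative breast cancer lines of basal-like or mesenchymal-like type, grown without fibroblasts. A drop in red signal reflects loss of mitochondrial integrity, a stand-in for apoptotic death.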

Assays:
[1] = system: MDAMB436; assay: relative JC-1 red fluorescence (viability) vs pre-drug, monoculture (fraction); higher = more viable cancer cells; settings: coculture fibroblast: none (monoculture)
Procedure: (§1)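 JC-1 labelled TNBC cells grown in monoculture (density kept equal with unlabelled cancer cells) in 384-well plates in FluoroBrite medium, treated with one of 42 anticancer drugs at 0.1, 1, 10 or 100 uM. JC-1 red fluorescence (mitochondrial integrity, surrogate of apoptotic death) was read by plate reader every 8 h for 72 h. Values are normalised to each well's pre-drug value, with background from alamethicin. The stock of one drug was tenfold lower, so its dose labels may be too high. Monoculture values are repeated alongside each fibroblast plate and are averaged here.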

[2] = system: HCC1143; assay: as above; settings: coculture fibroblast: none (monoculture)
Procedure: as §1

CO[C@H]1C[C@@H]2CC[C@@H](C)[C@@](O)(O2)C(=O)C(=O)N2CCCC[C@H]2C(=O)O[C@H]([C@H](C)C[C@@H]2CC[C@@H](OCCO)[C@H](OC)C2)CC(=O)[C@H](C)/C=C(\C)[C@@H](O)[C@@H](OC)C(=O)[C@H](C)C[C@H](C)/C=C/C=C/C=C/1C [Everolimus]
relative JC-1 red fluorescence
Settings	8 h	16 h	24 h	32 h	40 h	48 h	56 h	64 h	72 h
[1], 0.1 µM	0.865 ± 0.012	0.704 ± 0.011	0.72 ± 0.02	0.663 ± 0.018	0.639 ± 0.027	0.632 ± 0.031	0.621 ± 0.035	0.622 ± 0.037	0.627 ± 0.05
[1], 1 µM	0.8804 ± 0.0072	0.816 ± 0.024	0.808 ± 0.026	0.767 ± 0.019	0.756 ± 0.025	0.759 ± 0.027	0.762 ± 0.024	0.758 ± 0.031	0.755 ± 0.021
[1], 10 µM	0.928 ± 0.014	0.943 ± 0.021	0.871 ± 0.097	0.958 ± 0.038	0.886 ± 0.037	0.813 ± 0.075	0.803 ± 0.084	0.933 ± 0.061	0.789 ± 0.077
[1], 100 µM	0.831 ± 0.11	0.832 ± 0.1	0.811 ± 0.025	0.7334 ± 0.0022	0.832 ± 0.12	0.883 ± 0.043	0.753 ± 0.036	0.6716 ± 0.0021	0.62 ± 0.015
[2], 0.1 µM	0.8732 ± 0.002	0.772 ± 0.012	0.6975 ± 0.0055	0.651 ± 0.011	0.5993 ± 0.0054	0.5605 ± 0.0026	0.529 ± 0.008	0.522 ± 0.012	0.515 ± 0.01
[2], 1 µM	0.875 ± 0.018	0.801 ± 0.031	0.735 ± 0.042	0.685 ± 0.057	0.646 ± 0.059	0.603 ± 0.052	0.575 ± 0.051	0.566 ± 0.057	0.553 ± 0.052
[2], 10 µM	0.956 ± 0.021	0.929 ± 0.018	0.869 ± 0.039	0.82 ± 0.032	0.791 ± 0.037	0.754 ± 0.028	0.716 ± 0.027	0.698 ± 0.028	0.685 ± 0.039
[2], 100 µM	0.827 ± 0.052	0.819 ± 0.095	0.753 ± 0.1	0.67 ± 0.09	0.606 ± 0.043	0.534 ± 0.0065	0.498 ± 0.048	0.427 ± 0.077	0.388 ± 0.12
